Experimental data from the supplement of paper PMC9744312.
Counter-ions that a name gives are not always drawn. The list shows a part of the results. This is a noisy data set.

System: Peyronie's disease tunica albuginea primary fibroblasts
Test: inhibition of TGF-beta1-induced alpha-SMA expression (myofibroblast transformation), relative to TGF-beta1-only and untreated controls; higher = stronger inhibition of myofibroblast transformation
Settings: 10 µM; TGF-beta1 10 ng/mL; 72 h

SMILES | inhibition of TGF-beta1-induced alpha-SMA expression
O=C(Nc1ccccc1)OCC(CN1CCCCC1)OC(=O)Nc1ccccc1 (centres undefined) [Diperodon HCl] | 45%
COc1cc2ncnc(Nc3ccc(F)c(Cl)c3)c2cc1NC(=O)/C=C/CN1CCCCC1 | > 100%
CCCCC1C(=O)N(c2ccccc2)N(c2ccccc2)C1=O [Phenylbutazone] | 7.48%
CCCc1nc2c(C)cc(-c3nc4ccccc4n3C)cc2n1Cc1ccc(-c2ccccc2C(=O)O)cc1 [Telmisartan] | 8.03%
CCCCOC(=O)c1ccc(O)cc1 [Butylparaben] | -42.7%
COCCCOc1cc(C[C@@H](C[C@H](N)[C@@H](O)C[C@H](C(=O)NCC(C)(C)C(N)=O)C(C)C)C(C)C)ccc1OC [Aliskiren Hemifumarate] | -2.38%
CCCCC[C@](C)(O)/C=C/[C@@H]1[C@@H](C/C=C\CCCC(=O)O)[C@@H](O)C[C@H]1O [Carboprost] | 55.8%
CC1=CC(=O)c2ccccc2C1=O [Menadione] | 63%
CC(=O)/N=c1/sc(S(N)(=O)=O)nn1C [Methazolamide] | 29.9%
Cc1ccc(C(=O)N(CCCN)[C@@H](c2nc3cc(Cl)ccc3c(=O)n2Cc2ccccc2)C(C)C)cc1 | > 100%
C[C@@H](Oc1cc(-c2cnn(C3CCNCC3)c2)cnc1N)c1c(Cl)ccc(F)c1Cl | 91.3%
Cc1cc(Nc2ncc(Cl)c(Nc3ccccc3S(=O)(=O)C(C)C)n2)c(OC(C)C)cc1C1CCNCC1 [Ceritinib (LDK378)] | > 100%
COCCCOc1ccnc(C[S+]([O-])c2nc3ccccc3[nH]2)c1C (centres undefined) [Rebeprazole sodium] | -35.6%
COCCCOc1ccnc(C[S+]([O-])c2nc3ccccc3[nH]2)c1C (centres undefined) [Rabeprazole] | 13.1%
CNCC[C@@H](Oc1ccccc1C)c1ccccc1 [Atomoxetine HCl] | 25.6%
CC(C)(O)CNc1nc(Nc2ccnc(C(F)(F)F)c2)nc(-c2cccc(C(F)(F)F)n2)n1 [Enasidenib (AG-221)] | -13.3%
Cc1ccc(C(=O)C(C)CN2CCCCC2)cc1 (centres undefined) [Tolperisone HCl] | -2.63%
CC[C@]1(O)C[C@@H]2CN(CCc3c([nH]c4ccccc34)[C@@](C(=O)OC)(c3cc4c(cc3OC)N(C)[C@H]3[C@@](O)(C(=O)OC)[C@H](OC(C)=O)[C@]5(CC)C=CCN6CC[C@]43[C@@H]65)C2)C1 [Vinblastine sulfate] | > 100%
CCc1cc(/C(C)=N/OCc2ccc(C3CCCCC3)c(C(F)(F)F)c2)ccc1CN1CC(C(=O)O)C1 [BAF312 (Siponimod)] | 19.5%
Nc1cc(N2CCCCC2)nc(N)[n+]1OS(=O)(=O)[O-] [Minoxidil sulphate] | -0.653%
CC(C)(C)C(O)/C=C/c1ccc2c(c1)OCO2 (centres undefined) [Stiripentol] | 7.39%
Cc1c(C)c2c(c(C)c1O)CC[C@@](C)(CCC[C@H](C)CCC[C@H](C)CCCC(C)C)O2 [Vitamin E] | 16.9%
CCN(CCCc1ccccc1)CCCc1ccccc1 [Alverine Citrate] | 21.6%
CC(CCc1ccc(O)cc1)NCC(O)c1ccc(O)cc1 (centres undefined) [Ractopamine HCl] | -0.844%
COc1cc2c(cc1OC)CN(CCc1ccc(NC(=O)c3cccc4c(=O)c5cccc(OC)c5[nH]c34)cc1)CC2 | 15.4%

15 successive records from above:
SMILES | inhibition of TGF-beta1-induced alpha-SMA expression
CC1=CC(=O)c2ccccc2C1=O [Menadione] | 63%
CC(=O)/N=c1/sc(S(N)(=O)=O)nn1C [Methazolamide] | 29.9%
Cc1ccc(C(=O)N(CCCN)[C@@H](c2nc3cc(Cl)ccc3c(=O)n2Cc2ccccc2)C(C)C)cc1 | > 100%
C[C@@H](Oc1cc(-c2cnn(C3CCNCC3)c2)cnc1N)c1c(Cl)ccc(F)c1Cl | 91.3%
Cc1cc(Nc2ncc(Cl)c(Nc3ccccc3S(=O)(=O)C(C)C)n2)c(OC(C)C)cc1C1CCNCC1 [Ceritinib (LDK378)] | > 100%
COCCCOc1ccnc(C[S+]([O-])c2nc3ccccc3[nH]2)c1C (centres undefined) [Rebeprazole sodium] | -35.6%
COCCCOc1ccnc(C[S+]([O-])c2nc3ccccc3[nH]2)c1C (centres undefined) [Rabeprazole] | 13.1%
CNCC[C@@H](Oc1ccccc1C)c1ccccc1 [Atomoxetine HCl] | 25.6%
CC(C)(O)CNc1nc(Nc2ccnc(C(F)(F)F)c2)nc(-c2cccc(C(F)(F)F)n2)n1 [Enasidenib (AG-221)] | -13.3%
Cc1ccc(C(=O)C(C)CN2CCCCC2)cc1 (centres undefined) [Tolperisone HCl] | -2.63%
CC[C@]1(O)C[C@@H]2CN(CCc3c([nH]c4ccccc34)[C@@](C(=O)OC)(c3cc4c(cc3OC)N(C)[C@H]3[C@@](O)(C(=O)OC)[C@H](OC(C)=O)[C@]5(CC)C=CCN6CC[C@]43[C@@H]65)C2)C1 [Vinblastine sulfate] | > 100%
CCc1cc(/C(C)=N/OCc2ccc(C3CCCCC3)c(C(F)(F)F)c2)ccc1CN1CC(C(=O)O)C1 [BAF312 (Siponimod)] | 19.5%
Nc1cc(N2CCCCC2)nc(N)[n+]1OS(=O)(=O)[O-] [Minoxidil sulphate] | -0.653%
CC(C)(C)C(O)/C=C/c1ccc2c(c1)OCO2 (centres undefined) [Stiripentol] | 7.39%
Cc1c(C)c2c(c(C)c1O)CC[C@@](C)(CCC[C@H](C)CCC[C@H](C)CCCC(C)C)O2 [Vitamin E] | 16.9%

Further entries follow:

SMILES | inhibition of TGF-beta1-induced alpha-SMA expression
O=P(O)(O)C(O)(Cc1cccnc1)P(=O)(O)O [Risedronate Sodium] | 7.37%
CCN(CC)C(=O)N1CCN(C)CC1 [Diethylcarbamazine citrate] | 28.1%
O=C(O)c1cc(O)c(O)c(O)c1 [Gallic acid] | 15.6%
O=S(=O)(O)CCSSCCS(=O)(=O)O [Dimesna] | 40.2%
CN1CCC[C@H]1c1cccnc1 [Nicotine Ditartrate] | -3.14%
CO[C@H]1C(=O)[C@]2(C)[C@@H](OC)C[C@H]3OC[C@@]3(OC(C)=O)[C@H]2[C@H](OC(=O)c2ccccc2)[C@]2(O)C[C@H](OC(=O)[C@H](O)[C@@H](NC(=O)OC(C)(C)C)c3ccccc3)C(C)=C1C2(C)C [Cabazitaxel] | 78.1%
CCCC(C(=O)OCCN(CC)CC)(c1ccccc1)c1ccccc1 [Proadifen HCl] | 13.3%
CCC(=O)NC[C@@H]1C[C@H]1c1cccc2c1CCO2 [Tasimelteon] | 61.7%
Clc1ccc(COC(Cn2ccnc2)c2ccc(Cl)cc2Cl)cc1 (centres undefined) [Econazole] | -10.2%
Clc1ccc(COC(Cn2ccnc2)c2ccc(Cl)cc2Cl)cc1 (centres undefined) [Econazole nitrate] | 11.2%
Clc1ccccc1C(c1ccccc1)(c1ccccc1)n1ccnc1 [Clotrimazole] | 18.5%
NC(=O)NO [Hydroxyurea] | 0.309%
O=C(O)c1cc(=O)c2c(OCC(O)COc3cccc4oc(C(=O)O)cc(=O)c34)cccc2o1 [Disodium Cromoglycate] | 81.6%
CC(=O)OC(C)C[N+](C)(C)C (centres undefined) [Methacholine chloride] | -6.86%
CCCCOc1ccc(CC(=O)NO)cc1 [Bufexamac] | 6.24%
Oc1c(Cl)cc(Cl)cc1Sc1cc(Cl)cc(Cl)c1O [Bithionol] | 37.6%
NC[C@H]1CC[C@H](C(=O)O)CC1 [Tranexamic Acid] | 23.3%
Cc1ccc(O)c([C@H](CCN(C(C)C)C(C)C)c2ccccc2)c1 [Tolterodine tartrate] | 10.3%
Nc1nc(=O)c2c([nH]1)NCC(CNc1ccc(C(=O)N[C@@H](CCC(=O)O)C(=O)O)cc1)N2C=O (some centres undefined) [Calcium folinate] | 29.3%
Nc1nc(=O)c2c([nH]1)NCC(CNc1ccc(C(=O)N[C@@H](CCC(=O)O)C(=O)O)cc1)N2C=O (some centres undefined) [Leucovorin Calcium Pentahydrate] | -13.9%
Cc1c(O)cccc1C(=O)N[C@@H](CSc1ccccc1)[C@H](O)CN1C[C@H]2CCCC[C@H]2C[C@H]1C(=O)NC(C)(C)C [Nelfinavir Mesylate] | 42.5%
CN(C)CCC(c1ccccc1)c1ccccn1 (centres undefined) [Pheniramine Maleate] | -11.9%
CCOc1ccc(Cc2cc([C@@H]3O[C@H](CO)[C@@H](O)[C@H](O)[C@H]3O)ccc2Cl)cc1 [Dapagliflozin] | 30.9%
CCOc1ccc(Cc2cc([C@@H]3O[C@H](CO)[C@@H](O)[C@H](O)[C@H]3O)ccc2Cl)cc1 [Dapagliflozin propanediol monohydrate] | 7.07%
